PubChem BioAssay AID602196 – INSERM | 2012

Purpose: 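Modifiers of cisplatin sensitivity in A549 cells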
System: human A549 lung cancer cells
Knock-down reagent: siRNA pair against human genes
Duration: 48 h transfection before cisplatin; time from cisplatin to read-out not stated
Challenge: cisplatin at a dose killing half of control-siRNA cells; exact dose and duration not given
Read-out: 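Cisplatin cell death as a shift from the 50% death seen with control siRNA; siRNAs toxic or growth-blocking alone scored 0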
Reading the numbers: two-siRNA summed score (-2 to +2): higher = both siRNAs protect from cisplatin killing; -2 means both sensitise
Call rule: 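Each siRNA scores 0 if harmful alone by LDH or WST-1, otherwise +1 if it reduces and -1 if it increases cisplatin killing; a gene is active when both siRNAs agree (sum +2 or -2)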
Meaning of the calls: active = both siRNAs shift cisplatin killing the same way; inactive = no consistent shift, or siRNA harmful alone
In all, the deposit lists about 23,000 reagents; this is a random part of them. Over the whole deposit, 455 (2%) got an active call. 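Active includes both protection and sensitisation; some change values fall well beyond the stated -50 to +50 range.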 Unmarked entries are inactive. Not all columns of the deposit are shown. Not stated in the record: the amount of reagent.

MSC [SID131504271]
- two-siRNA summed score (-2 to +2): 0

DCST2 [SID131521116]
- two-siRNA summed score (-2 to +2): 1

EPAS1 [SID131521051]
- two-siRNA summed score (-2 to +2): 1

CCR9 [SID131513752]
- two-siRNA summed score (-2 to +2): 0

NTN3 [SID131522874]
- two-siRNA summed score (-2 to +2): 1

GPR119 [SID131517286]
- two-siRNA summed score (-2 to +2): 0

HJV [SID131515716]
- two-siRNA summed score (-2 to +2): 0

NUTM1 [SID131518346]
- two-siRNA summed score (-2 to +2): 0

UPP2 [SID131504757]
- two-siRNA summed score (-2 to +2): 0

GRM4 [SID131501500]
- two-siRNA summed score (-2 to +2): -1

REEP1 [SID131505865]
- two-siRNA summed score (-2 to +2): 0

SLC67A2 [SID131507251]
- two-siRNA summed score (-2 to +2): 0

CXCL2 [SID131513018]
- two-siRNA summed score (-2 to +2): 0

ZNF678 [SID131519629]
- two-siRNA summed score (-2 to +2): 1

GEMIN6 [SID131504182]
- two-siRNA summed score (-2 to +2): 0

NADK [SID131518898]
- two-siRNA summed score (-2 to +2): 0

FASTK [SID131520683]
- two-siRNA summed score (-2 to +2): 1

YY1 [SID131503593]
- two-siRNA summed score (-2 to +2): 0

EMX2 [SID131508346]
- two-siRNA summed score (-2 to +2): 0

KIAA1076 [SID131507857]
- two-siRNA summed score (-2 to +2): 0

HPGD [SID131505305]
- two-siRNA summed score (-2 to +2): 0

SPZ1 [SID131513549]
- two-siRNA summed score (-2 to +2): 0

ABCA10 [SID131506471]
- two-siRNA summed score (-2 to +2): 0

RNF20 [SID131507773]
- two-siRNA summed score (-2 to +2): 0

HOMER2 [SID131506329]
- two-siRNA summed score (-2 to +2): 0

DPPA3P2 [SID131510601]
- two-siRNA summed score (-2 to +2): 0

NKX2-1 [SID131506804]
- two-siRNA summed score (-2 to +2): 0

GH1 [SID131502723]
- two-siRNA summed score (-2 to +2): -1

PAIP1 [SID131509599]
- two-siRNA summed score (-2 to +2): 0

LINC00472 [SID131513182]
- two-siRNA summed score (-2 to +2): 0

PPP2R2C [SID131515317]
- two-siRNA summed score (-2 to +2): 0

HP [SID131500449]
- two-siRNA summed score (-2 to +2): -1

JCAD [SID131520657]
- two-siRNA summed score (-2 to +2): 1

PRKG2 [SID131502148]
- two-siRNA summed score (-2 to +2): -1

CELF3 [SID131518002]
- two-siRNA summed score (-2 to +2): 0

PILRA [SID131515950]
- two-siRNA summed score (-2 to +2): 0

CABP7 [SID131508734]
- two-siRNA summed score (-2 to +2): 0

SRARP [SID131515061]
- two-siRNA summed score (-2 to +2): 0

LOC390221 [SID131502327]
- two-siRNA summed score (-2 to +2): -1

GPR34 [SID131501808]
- two-siRNA summed score (-2 to +2): -1
